This is an account of results in the supplement of paper PMC9135407.

Values joined by “and” are separate entries in the source; they are usually repeats but may differ in a detail not shown here. Equal entries are not always repeated. Structures can show the parent of a compound that is named as a salt. ± gives the standard deviation of the averaged measurements. Some of the results follow. Baselines shift from plate to plate; read single values as rough.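 Primary human stellate myofibroblasts activated in culture; inactivation shown by regained lipid droplets. Readout: fraction of Hoechst-counted cells exceeding a per-plate Bodipy threshold, duplicate wells, each plate with DMSO negative and nortriptyline positive controls. Hits: control-normalized score beyond the plate's top-tenth-percentile nortriptyline wells, or among its three best wells. Final well concentrations unstated.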

For the assay, the system named is primary human hepatic stellate cells (donor 1). Put plainly: percent Bodipy-positive cells; higher = more lipid droplet accumulation. Conditions: 48 h.
Where [1] appears, read: library stock concentration: 10 mM.
The mark [2] stands for this setting: library stock concentration: 3.33 mM.
Setting [3] is: library stock concentration: 1 mM.
The mark [4] stands for this setting: library stock concentration: 3 mM.
Where [5] appears, read: library stock concentration: 80 uM.
Where [6] appears, read: library stock concentration: 400 uM.
[7] abbreviates: library stock concentration: 2 mM.

Consider `CS(=O)(=O)O.Cc1ccc(NC(=O)c2ccc(CN3CCN(C)CC3)cc2)cc1Nc1nccc(-c2cccnc2)n1` [Imatinib Mesylate (STI571)], for which, under setting [1], the “percent Bodipy-positive cells” value was found to be 98.15 ± 0.96%.

`CC1CCc2c(N3CCC(O)CC3)c(F)cc3c(=O)c(C(=O)O)cn1c23` (centres undefined) [Nadifloxacin]: the “percent Bodipy-positive cells” value was found to be 5.99 ± 2.6%. The “percent Bodipy-positive cells” value under setting [2] amounted to 5.13 ± 1%. Also, the “percent Bodipy-positive cells” value under setting [1] was 12.2 ± 0.2%.

Consider `CCCCCC(=O)/C=C/C=O` [4-oxo-2-Nonenal], for which, under setting [3], the “percent Bodipy-positive cells” value stood at 13.2 ± 0.18%.

Consider `CCCCCCCCCCCCCCCC(=O)OC[C@H](COP(=O)([O-])OCC[N+](C)(C)C)OC(=O)CCCCCCCC(=O)/C=C/C(=O)O`, for which, under setting [3], the “percent Bodipy-positive cells” value was determined as 4.56 ± 2.4%.

On to `CCCCC[C@H](O)/C=C/[C@@H]1[C@@H](CCCCCCC(=O)O)[C@H](O)C[C@@H]1O` [11.beta.-Prostaglandin F1.beta.], for which the “percent Bodipy-positive cells” value under setting [3] worked out at 18.4 ± 1.8%.

With `N=C1C=CC(=C(c2ccc(N)cc2)c2ccc(N)cc2)C=C1` [Pararosaniline pamoate], the “percent Bodipy-positive cells” value turned out to be 57.9 ± 0.84% under setting [4] and 68.9 ± 2.6% under setting [1].

Turning to `CCCCCC[C@@H]([C@@H](C)O)n1cnc2c(N)ncnc21` (racemic), where the note is “library stock concentration: 18 mM”, the “percent Bodipy-positive cells” value amounted to 22 ± 2.7%.

For `O=C1Cc2cc(CCN3CCN(c4nsc5ccccc45)CC3)c(Cl)cc2N1` [Ziprasidone hydrochloride monohydrate], the “percent Bodipy-positive cells” value under setting [1] is 45.4 ± 11%.

Consider `O=C1Cc2cc(CCN3CCN(c4nsc5ccccc45)CC3)c(Cl)cc2N1`, for which the “percent Bodipy-positive cells” value under setting [1] came out at 58.9 ± 11%.

In the case of `O=C1Cc2cc(CCN3CCN(c4nsc5ccccc45)CC3)c(Cl)cc2N1` [Ziprasidone HCl], the “percent Bodipy-positive cells” value reads like this: under setting [2], 27.2 ± 1.4%; under setting [1], 22 ± 6.9%.

For the molecule `CC(C)/N=c1\cc2n(-c3ccc(Cl)cc3)c3ccccc3nc-2cc1Nc1ccc(Cl)cc1` [Clofazimine], the “percent Bodipy-positive cells” value worked out at 14.2 ± 2.6%. Besides, the “percent Bodipy-positive cells” value under setting [2] came out at 1.73 ± 2%. Moreover, the “percent Bodipy-positive cells” value under setting [1] was determined as 2.45 ± 2.4%.

As to `CC(C)/N=c1\cc2n(-c3ccc(Cl)cc3)c3ccccc3nc-2cc1Nc1ccc(Cl)cc1`, the “percent Bodipy-positive cells” value under setting [1] turned out to be 7.71 ± 6.2%.

As to `CN(C)CCC(c1ccc(Br)cc1)c1ccccn1.O=C(O)/C=C\C(=O)O` (centres undefined), the “percent Bodipy-positive cells” value under setting [1] was found to be 92 ± 3.9%.

Consider `C[N+](C)(C)CCCCCNCC12CC3CC(CC(C3)C1)C2`, for which, under setting [1], the “percent Bodipy-positive cells” value was found to be 10.8 ± 0.53%.

With `CCN[C@H]1C[C@H](C)S(=O)(=O)c2sc(S(N)(=O)=O)cc21` [Dorzolamide hydrochloride], the “percent Bodipy-positive cells” value is 7.43 ± 0.78%.

With `CCN[C@H]1C[C@H](C)S(=O)(=O)c2sc(S(N)(=O)=O)cc21` [Dorzolamide], where the note is “library stock concentration: 6.2 mM”, the “percent Bodipy-positive cells” value is 9.39 ± 1.1%.

Take `N[C@H](CO)C(=O)O` [D-Serine]: the “percent Bodipy-positive cells” value under setting [1] amounted to 12.3 ± 3.3%.

For the molecule `CC(C)(S)C(N)C(=O)O` (racemic), under setting [1], the “percent Bodipy-positive cells” value came out at 24.1 ± 2.8%.

For the molecule `NC(Cc1cccc(-c2ccccc2CP(=O)(O)O)c1)C(=O)O` (stereo not drawn) [Phenylbenzene-omega-phosphono-alpha-amino acid], under setting [1], the “percent Bodipy-positive cells” value stood at 16.3 ± 1.5%.

As for `O=S(=O)(c1cccc2cnccc12)N1CCNCC1`, under setting [1], the “percent Bodipy-positive cells” value amounted to 57.4 ± 3.5%.

Take `CC(=O)N(O)CCCCCNC(=O)CCC(=O)N(O)CCCCCNC(=O)CCC(=O)N(O)CCCCCN` [Deferoxamine mesylate]: the “percent Bodipy-positive cells” value is 13 ± 12%. Further, the “percent Bodipy-positive cells” value under setting [4] came out at 2.88 ± 0.69%. The “percent Bodipy-positive cells” value under setting [1] came out at 9 ± 1.5%.

With `CC(C)(C(=O)c1cccnc1)c1cccnc1` [Metyrapone], the “percent Bodipy-positive cells” value was 13 ± 3.1%. The “percent Bodipy-positive cells” value (library stock concentration: 8.8 mM) amounted to 2.63 ± 1.8%.

With `CC(C)(C(=O)c1cccnc1)c1cccnc1`, the “percent Bodipy-positive cells” value under setting [1] is 33.1 ± 9.9%.

Take `CCN1CCN(Cc2ccc(NC(=O)c3ccc(C)c(Oc4ccnc5[nH]ccc45)c3)cc2C(F)(F)F)CC1`: the “percent Bodipy-positive cells” value reads like this: under setting [5], 18.4 ± 2.1%; under setting [6], 34.8 ± 5.2%; under setting [7], 72.8 ± 3.8%; under setting [1], 99.67 ± 0.47%.

Regarding `NCCCCNCCCN` [Spermidine trihydrochloride], the “percent Bodipy-positive cells” value under setting [1] was 8.14% and 10.7%.

`Nc1ncn([C@H]2C[C@H](O)[C@@H](CO)O2)c(=O)n1` [Decitabine]: the “percent Bodipy-positive cells” value is, setting by setting: under setting [5], 49.2 ± 5.1%; under setting [6], 35.7 ± 3.1%; under setting [7], 40.2 ± 7.6%; under setting [2], 9.95 ± 0.71%.

As to `O=C(Cc1ccc(-c2ccc(OCCN3CCOCC3)cc2)cn1)NCc1ccccc1`, the “percent Bodipy-positive cells” value is, setting by setting: under setting [5], 19 ± 2.4%; under setting [6], 28.7 ± 5%; under setting [7], 25.3 ± 12%; under setting [2], 32.9 ± 9.3%; under setting [1], 52.6% and 38.3%.

For `O=c1cc(-c2ccc(O)c(O)c2)oc2cc(O)cc(O)c12` [Luteolin], the “percent Bodipy-positive cells” value came to 16 ± 3.4%. Besides, the “percent Bodipy-positive cells” value under setting [3] was 9.83 ± 3.1%. For the same molecule, the “percent Bodipy-positive cells” value under setting [2] was 12.1 ± 2.8%. Further, the “percent Bodipy-positive cells” value under setting [1] is 41.6 ± 1.1%.

As to `CC(=O)Nc1ccc(NC(=S)NC(=O)c2ccc(C(C)(C)C)cc2)cc1` [Tenovin-1], the “percent Bodipy-positive cells” value under setting [3] amounted to 9.6 ± 2%.

For the molecule `N#Cc1c(C2CCNCC2)cc(-c2c(O)cccc2OCC2CC2)nc1N` [IKK-2 Inhibitor VIII], the “percent Bodipy-positive cells” value under setting [2] turned out to be 32.5 ± 5%.

`N#Cc1c(C2CCNCC2)cc(-c2c(O)cccc2OCC2CC2)nc1N`: the “percent Bodipy-positive cells” value under setting [5] stood at 10.1 ± 0.28%, the “percent Bodipy-positive cells” value under setting [6] was 8.53 ± 1.2% and the “percent Bodipy-positive cells” value under setting [7] came out at 33.1 ± 2.5%.

As for `Cl.Clc1ccc(Cn2c(CN3CCCC3)nc3ccccc32)cc1` [Clemizole hydrochloride], the “percent Bodipy-positive cells” value under setting [1] turned out to be 94.06 ± 0.31%.

Take `CC(C)N(CCCNC(=O)Nc1ccc(C(C)(C)C)cc1)C[C@H]1O[C@@H](n2ccc3c(N)ncnc32)[C@H](O)[C@@H]1O`: the “percent Bodipy-positive cells” value was 53.6 ± 2.4% under setting [2] and 77.8 ± 7.6% under setting [1].

On to `CNc1nccc(-c2cccnc2Oc2cc(C(=O)Nc3cccc(C(F)(F)F)c3)ccc2C)n1`, for which the “percent Bodipy-positive cells” value runs as follows: under setting [6], 22.6 ± 3%; under setting [7], 19.4 ± 7.2%.

As to `C[C@]12CC[C@@H]3c4ccc(O)cc4CC[C@H]3[C@@H]1CC[C@@H]2OC(=O)CCC1CCCC1` [Estradiol Cypionate], the “percent Bodipy-positive cells” value was 8.25 ± 0.79% under setting [2] and 59.7 ± 11% under setting [1].

As for `C[C@]12CC[C@@H]3c4ccc(O)cc4CC[C@H]3[C@@H]1CC[C@@H]2OC(=O)CCC1CCCC1` [Estradiol cypionate], the “percent Bodipy-positive cells” value reads like this: (library stock concentration: 5 mM) 7.19 ± 9%; under setting [1], 9.41 ± 2%.

On to `CCS(=O)(=O)Nc1ccc2[nH]c(O)c(C(=Nc3ccc(CN4CCCCC4)cc3)c3ccccc3)c2c1` [Hesperadin], for which the “percent Bodipy-positive cells” value turned out to be 20.96 ± 0.17% under setting [2] and 84.7 ± 3.9% under setting [1].

Take `Cc1cc(Nc2ccc(NC(=O)c3ccc(Nc4ccnc5ccccc45)cc3)cc2)nc(N)n1`: the “percent Bodipy-positive cells” value stood at 99.2 ± 1.2% under setting [2] and 91 ± 8.8% under setting [1].

Consider `CCC(Cc1c(I)cc(I)c(N)c1I)C(=O)O` (centres undefined) [Iopanic acid], for which the “percent Bodipy-positive cells” value was 7.99 ± 4.1% (library stock concentration: 3.5 mM) and 47.1 ± 21% under setting [1].

As for `CCC(Cc1c(I)cc(I)c(N)c1I)C(=O)O` (centres undefined) [Iopanoic acid], the “percent Bodipy-positive cells” value was determined as 9.42 ± 0.36%.

Consider `CCC(NC(C)C)C(O)c1ccc(O)c(O)c1` (centres undefined) [Isoetharine mesylate salt], for which the “percent Bodipy-positive cells” value amounted to 8.2 ± 0.88%.

With `CCC(NC(C)C)C(O)c1ccc(O)c(O)c1` (centres undefined) [Isoetharine mesylate], the “percent Bodipy-positive cells” value (library stock concentration: 6 mM) came out at 13.8 ± 12%.

In the case of `CCC(NC(C)C)C(O)c1ccc(O)c(O)c1` (centres undefined) [Isotharine mesylate], the “percent Bodipy-positive cells” value under setting [1] came to 41.2 ± 0.87%.

With `CNC(CC(=O)O)C(=O)O` [NMDA (N-Methyl-D-aspartic acid)], the “percent Bodipy-positive cells” value under setting [2] was determined as 5.83 ± 1.1% and the “percent Bodipy-positive cells” value under setting [1] amounted to 26.9 ± 7.1%.

With `CC(=O)OCCNC(=O)c1cccnc1` [N-[2-(Acetoxy)ethyl]-3-pyridinecarboxamide], the “percent Bodipy-positive cells” value under setting [1] was 11.3 ± 3.1%.

In the case of `CN(C)CC=CC(=O)Nc1cc2c(Nc3ccc(F)c(Cl)c3)ncnc2cc1O[C@H]1CCOC1` [Afatinib (BIBW2992)], the “percent Bodipy-positive cells” value under setting [2] was 88 ± 3%.

For `CN1CCc2cccc3c2[C@H]1Cc1ccc(O)c(O)c1-3` [R(-) Apomorphine hydrochloride hemihydrate], the “percent Bodipy-positive cells” value stood at 42.2 ± 12%.

For `CN1CCc2cccc3c2[C@H]1Cc1ccc(O)c(O)c1-3` [Apomorphine hydrochloride], the “percent Bodipy-positive cells” value by setting is: (library stock concentration: 6.6 mM) 1.65 ± 0.52%; under setting [1], 16.3 ± 4.5%.

Turning to `CN1CCc2cccc3c2[C@H]1Cc1ccc(O)c(O)c1-3` [Apomorphine r (-)], the “percent Bodipy-positive cells” value (library stock concentration: 7.5 mM) was determined as 8.992 ± 0.044%.

For `CN1CCc2cccc3c2[C@H]1Cc1ccc(O)c(O)c1-3` [(R)-(-)-Apomorphine hydrochloride], the “percent Bodipy-positive cells” value under setting [1] amounted to 6.46 ± 2.2%.

Take `CN1CCc2cccc3c2[C@H]1Cc1ccc(O)c(O)c1-3` [Apomorphine hydrochloride hemihydrate]: the “percent Bodipy-positive cells” value under setting [1] is 30.9 ± 5.4%.
